Experiment [1] deals with AvrPtoB-GFP (dexamethasone-inducible, pTA7001) (Pseudomonas syringae) (UniProt Q8RSY1). Briefly: co-IP.
For experiment [2], the target named is T1, SnRK2.6 fused to the GAL4 DNA binding domain (pGBKT7) (Arabidopsis) (UniProt Q940H6).
T1 sequence: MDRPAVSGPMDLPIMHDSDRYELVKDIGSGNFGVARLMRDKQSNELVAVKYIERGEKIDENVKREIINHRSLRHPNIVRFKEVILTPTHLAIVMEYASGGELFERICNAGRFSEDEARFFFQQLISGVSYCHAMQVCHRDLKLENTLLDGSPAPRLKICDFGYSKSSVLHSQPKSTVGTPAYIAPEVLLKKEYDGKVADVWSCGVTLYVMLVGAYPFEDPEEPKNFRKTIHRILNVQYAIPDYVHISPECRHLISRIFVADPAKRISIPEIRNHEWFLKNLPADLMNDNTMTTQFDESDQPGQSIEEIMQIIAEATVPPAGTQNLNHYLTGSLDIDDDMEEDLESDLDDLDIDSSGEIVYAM
Briefly: two-hybrid.

Experiment [3] concerns the target T2, SnRK2.8 fused to the GAL4 DNA binding domain (pGBKT7) (Arabidopsis) (UniProt Q9M9E9).
T2 sequence: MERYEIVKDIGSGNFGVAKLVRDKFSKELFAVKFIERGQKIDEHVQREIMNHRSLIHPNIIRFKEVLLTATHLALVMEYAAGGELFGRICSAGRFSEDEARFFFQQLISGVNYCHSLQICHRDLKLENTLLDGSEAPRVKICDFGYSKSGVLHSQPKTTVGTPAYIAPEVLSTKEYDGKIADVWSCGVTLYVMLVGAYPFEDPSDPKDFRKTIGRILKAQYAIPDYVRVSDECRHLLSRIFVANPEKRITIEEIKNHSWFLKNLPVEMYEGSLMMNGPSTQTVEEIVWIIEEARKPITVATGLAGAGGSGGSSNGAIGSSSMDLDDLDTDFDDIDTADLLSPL
Kind of experiment: two-hybrid.

Experiment [4] concerns the target SnRK1.1 fused to the GAL4 DNA binding domain (pGBKT7) (Arabidopsis) (UniProt Q38997). Kind of experiment: two-hybrid.

These are yes or no findings as the source states them, for the method shown. For some assays here: In cells and extracts the contact can be indirect. Some entries that bind do so weakly or less than the wild type. For some assays here: Tags and fused reporters may be left off the sequences shown.

With “SnRK1.1-KD-HA (kinase dead, K71A) (from UniProt Q38997-1 1-535) (enzyme)”, the binding result in experiment [1] is “binds weakly”.
As to “SnRK2.8-KD-HA (kinase dead, K33A) (from UniProt Q9M9E9 1-343) (enzyme)”, the binding result in experiment [1] is on record as “binds”.
For “AvrPtoB fused to the GAL4 activation domain (pGADT7-AvrPtoB) (from UniProt Q8RSY1 1-553)”, the binding result in experiment [2], in experiment [3] and in experiment [4] was “binds” each time.
